Our source for the binding values is patent EP1142907A1.

By UniProt entry, the sequences of proteins in these tests, tags left out.
UniProt P15337: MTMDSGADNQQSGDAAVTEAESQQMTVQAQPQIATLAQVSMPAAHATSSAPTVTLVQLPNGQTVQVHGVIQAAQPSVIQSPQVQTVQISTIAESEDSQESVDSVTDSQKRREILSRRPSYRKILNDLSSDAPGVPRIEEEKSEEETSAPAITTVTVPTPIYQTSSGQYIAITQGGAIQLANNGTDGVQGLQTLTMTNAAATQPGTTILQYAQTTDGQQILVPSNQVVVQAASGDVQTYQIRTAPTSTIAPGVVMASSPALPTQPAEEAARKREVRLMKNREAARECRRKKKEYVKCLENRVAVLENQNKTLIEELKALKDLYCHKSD

The target in the test is native CREB of rat tissue extracts (rat) (UniProt P15337). Description: coimmunoprecipitation of native proteins from rat brain nuclear extracts.

Results are given in words; binding and its absence hold for the method and conditions named. Binding seen in cells or lysates may run through a third protein. Some binding calls cover weakened binding; strength is not graded here.

B1: native DREAM of rat brain nuclear extracts (protein, UniProt Q9JM47 1-256, looked up)
chain: MQRTKEAMKASDGSLLGDPGRIPLSKREGIKWQRPRFTRQALMRCCLIKWILSSAAPQGSDSSDSELELSTVRHQPEGLDQLQAQTKFTKKELQSLYRGFKNECPTGLVDEDTFKLIYSQFFPQGDATTYAHFLFNAFDADGNGAIHFEDFVVGLSILLRGTVHEKLKWAFNLYDINKDGYITKEEMLAIMKSIYDMMGRHTYPILREDAPLEHVERFFQKMDRNQDGVVTIDEFLETCQKDENIMSSMQLFENVI
B1: the binding entry is given as “binds”.
